According to article PMC7511888, “Dependence of PINK1 accumulation on mitochondrial redox system” (Aging Cell, 2020):
Results are given in words; binding and its absence hold for the method and conditions named. In cells and extracts the contact can be indirect. Some binding calls cover weakened binding; strength is not graded here.

Protein sequences, listed by entry. Tags and fused reporters are not part of them. Residues count along the entry.
UniProt Q9BXM7, residues 78-581: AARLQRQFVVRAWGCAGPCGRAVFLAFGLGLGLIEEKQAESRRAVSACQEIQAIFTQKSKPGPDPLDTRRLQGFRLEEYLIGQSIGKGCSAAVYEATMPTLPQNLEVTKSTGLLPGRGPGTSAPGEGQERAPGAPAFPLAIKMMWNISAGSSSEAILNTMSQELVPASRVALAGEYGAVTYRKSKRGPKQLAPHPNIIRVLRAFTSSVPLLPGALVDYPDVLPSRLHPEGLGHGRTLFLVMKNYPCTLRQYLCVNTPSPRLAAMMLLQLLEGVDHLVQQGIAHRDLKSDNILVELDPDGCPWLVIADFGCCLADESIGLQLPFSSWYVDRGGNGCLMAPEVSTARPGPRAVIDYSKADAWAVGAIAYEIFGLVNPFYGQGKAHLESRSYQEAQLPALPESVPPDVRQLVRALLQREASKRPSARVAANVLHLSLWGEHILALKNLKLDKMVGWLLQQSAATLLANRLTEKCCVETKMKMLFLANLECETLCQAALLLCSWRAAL

T1: CHCHD4 (human (endogenous in HEK293)) (UniProt Q8N4Q1)
T1 sequence: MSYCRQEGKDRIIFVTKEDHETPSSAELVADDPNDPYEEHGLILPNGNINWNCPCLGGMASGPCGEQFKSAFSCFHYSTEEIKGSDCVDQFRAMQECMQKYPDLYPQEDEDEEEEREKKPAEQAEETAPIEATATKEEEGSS


Legend:
[1] = target: T1, CHCHD4 (human (endogenous in HEK293)); experiment: co-IP; endogenous proteins; HEK293 cells treated with CCCP (5 μM) for 2 hr; lysed in 50 mM Tris-HCl pH 7.5, 150 mM NaCl, 1 mM EDTA, 1% Nonidet P-40; precipitated with anti-CHCHD4 antibodies (Fig 3k) or anti-PINK1 antibody (Fig 3l); immunoblot
[2] = target: PTEN-induced putative kinase 1 (PINK1) (human (endogenous in HEK293)) (UniProt Q9BXM7); experiment: as above

binding [1]	binding [2]	Molecule
binds		PTEN-induced putative kinase 1 (PINK1) (from UniProt Q9BXM7 78-581)
	binds	CHCHD4 (protein, UniProt Q8N4Q1 1-142) MSYCRQEGKDRIIFVTKEDHETPSSAELVADDPNDPYEEHGLILPNGNINWNCPCLGGMASGPCGEQFKSAFSCFHYSTEEIKGSDCVDQFRAMQECMQKYPDLYPQEDEDEEEEREKKPAEQAEETAPIEATATKEEEGSS
